Results on 2 molecules are retold here after publication PMC3278377.

Sequences of proteins named here, by UniProt entry; tags and fusion partners are left off.
UniProt O54943: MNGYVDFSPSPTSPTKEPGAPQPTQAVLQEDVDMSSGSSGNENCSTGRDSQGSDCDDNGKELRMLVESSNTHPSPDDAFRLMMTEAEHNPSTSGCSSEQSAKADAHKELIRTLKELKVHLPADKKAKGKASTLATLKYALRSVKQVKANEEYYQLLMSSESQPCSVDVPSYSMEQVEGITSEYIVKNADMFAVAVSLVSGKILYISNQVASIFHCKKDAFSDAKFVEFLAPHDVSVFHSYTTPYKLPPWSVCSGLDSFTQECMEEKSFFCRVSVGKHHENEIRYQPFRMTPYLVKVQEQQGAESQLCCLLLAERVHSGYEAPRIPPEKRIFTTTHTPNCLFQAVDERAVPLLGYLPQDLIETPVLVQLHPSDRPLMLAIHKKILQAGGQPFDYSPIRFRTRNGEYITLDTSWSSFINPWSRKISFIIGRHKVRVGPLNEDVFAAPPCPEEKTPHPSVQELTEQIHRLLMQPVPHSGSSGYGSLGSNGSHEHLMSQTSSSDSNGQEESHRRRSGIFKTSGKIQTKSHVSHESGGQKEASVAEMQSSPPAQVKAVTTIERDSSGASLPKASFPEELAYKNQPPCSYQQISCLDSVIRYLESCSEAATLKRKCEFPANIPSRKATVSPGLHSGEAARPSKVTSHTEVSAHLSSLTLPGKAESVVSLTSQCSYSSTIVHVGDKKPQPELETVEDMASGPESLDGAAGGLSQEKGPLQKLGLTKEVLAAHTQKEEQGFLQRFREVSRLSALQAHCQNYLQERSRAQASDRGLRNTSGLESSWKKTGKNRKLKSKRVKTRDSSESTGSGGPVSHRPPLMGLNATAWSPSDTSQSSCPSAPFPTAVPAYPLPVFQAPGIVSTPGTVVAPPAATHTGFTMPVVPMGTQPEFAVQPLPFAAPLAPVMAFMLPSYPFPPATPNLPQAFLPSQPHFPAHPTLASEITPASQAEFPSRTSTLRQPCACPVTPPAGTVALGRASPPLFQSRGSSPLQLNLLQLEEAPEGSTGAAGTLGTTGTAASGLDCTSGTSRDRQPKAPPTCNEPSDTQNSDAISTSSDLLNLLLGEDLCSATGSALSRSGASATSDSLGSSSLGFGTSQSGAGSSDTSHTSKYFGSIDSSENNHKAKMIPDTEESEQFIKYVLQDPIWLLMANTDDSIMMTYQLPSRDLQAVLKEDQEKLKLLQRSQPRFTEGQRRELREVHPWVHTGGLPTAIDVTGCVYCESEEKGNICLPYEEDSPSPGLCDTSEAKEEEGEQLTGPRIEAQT
UniProt Q9WTL8: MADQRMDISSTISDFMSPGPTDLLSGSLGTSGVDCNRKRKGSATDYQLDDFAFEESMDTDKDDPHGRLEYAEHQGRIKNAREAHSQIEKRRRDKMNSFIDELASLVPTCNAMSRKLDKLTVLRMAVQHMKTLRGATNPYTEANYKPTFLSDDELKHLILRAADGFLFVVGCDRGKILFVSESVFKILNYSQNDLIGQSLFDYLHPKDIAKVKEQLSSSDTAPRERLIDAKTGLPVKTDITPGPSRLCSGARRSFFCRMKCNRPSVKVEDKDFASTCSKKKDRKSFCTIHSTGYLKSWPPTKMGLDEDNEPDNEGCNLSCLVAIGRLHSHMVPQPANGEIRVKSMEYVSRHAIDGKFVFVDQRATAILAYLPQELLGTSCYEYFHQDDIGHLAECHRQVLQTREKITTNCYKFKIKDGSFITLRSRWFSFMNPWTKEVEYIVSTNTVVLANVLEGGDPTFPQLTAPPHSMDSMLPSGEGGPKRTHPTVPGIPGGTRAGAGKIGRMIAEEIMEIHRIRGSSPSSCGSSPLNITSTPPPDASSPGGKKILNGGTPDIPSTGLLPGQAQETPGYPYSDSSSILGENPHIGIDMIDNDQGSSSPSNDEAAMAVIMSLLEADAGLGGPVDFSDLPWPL

What all share (experiment): co-IP; HEK293 cells co-transfected with epitope-tagged expression plasmids; lysates immunoprecipitated with anti-HA, anti-V5 or anti-Xpress antibodies (protein G beads) and immunoblotted with antibodies against the reciprocal epitope tag; controls with a single construct or empty vector
For test [1], the target named is T1, Xpress-Magel2 (murine Magel2, epitope-tagged, from pcDNA4HisMaxXpressMagel2) (murine) (UniProt Q9QZ04).
T1 sequence: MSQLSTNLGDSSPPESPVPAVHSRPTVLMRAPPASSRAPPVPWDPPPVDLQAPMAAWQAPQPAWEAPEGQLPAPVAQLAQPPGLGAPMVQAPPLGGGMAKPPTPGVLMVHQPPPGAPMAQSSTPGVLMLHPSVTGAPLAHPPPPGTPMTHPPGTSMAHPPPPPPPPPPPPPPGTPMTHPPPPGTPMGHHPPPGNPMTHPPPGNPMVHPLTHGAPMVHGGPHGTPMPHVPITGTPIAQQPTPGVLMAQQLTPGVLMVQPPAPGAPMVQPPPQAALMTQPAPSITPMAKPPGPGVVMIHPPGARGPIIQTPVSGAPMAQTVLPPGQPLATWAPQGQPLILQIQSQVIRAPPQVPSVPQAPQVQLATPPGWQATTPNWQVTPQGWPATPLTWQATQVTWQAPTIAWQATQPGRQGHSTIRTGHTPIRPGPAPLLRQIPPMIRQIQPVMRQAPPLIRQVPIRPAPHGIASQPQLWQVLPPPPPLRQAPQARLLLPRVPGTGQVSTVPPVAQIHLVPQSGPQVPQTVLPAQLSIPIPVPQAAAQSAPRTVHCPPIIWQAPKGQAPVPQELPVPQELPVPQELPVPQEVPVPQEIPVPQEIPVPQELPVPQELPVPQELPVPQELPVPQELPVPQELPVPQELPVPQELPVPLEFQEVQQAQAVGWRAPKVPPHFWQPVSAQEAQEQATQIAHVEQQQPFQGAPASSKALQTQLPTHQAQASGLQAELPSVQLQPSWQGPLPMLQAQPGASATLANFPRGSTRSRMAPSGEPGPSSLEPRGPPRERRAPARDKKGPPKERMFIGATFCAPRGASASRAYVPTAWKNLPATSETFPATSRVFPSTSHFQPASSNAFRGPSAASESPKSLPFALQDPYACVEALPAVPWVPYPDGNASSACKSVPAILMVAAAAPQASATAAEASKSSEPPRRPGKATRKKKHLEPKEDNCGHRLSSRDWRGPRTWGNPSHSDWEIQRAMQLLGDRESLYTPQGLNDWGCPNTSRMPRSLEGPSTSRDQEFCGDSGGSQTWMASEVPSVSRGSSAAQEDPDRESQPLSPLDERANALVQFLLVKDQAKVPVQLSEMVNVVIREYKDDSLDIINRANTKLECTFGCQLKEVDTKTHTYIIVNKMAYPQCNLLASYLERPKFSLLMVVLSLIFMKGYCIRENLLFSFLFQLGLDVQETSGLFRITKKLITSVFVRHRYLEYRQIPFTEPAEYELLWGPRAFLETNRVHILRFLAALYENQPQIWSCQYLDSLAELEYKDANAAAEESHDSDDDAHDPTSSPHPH

Test [2] has as its target V5-Per2 (murine Per2, from pcDNA3.1Per2V5His) (murine) (UniProt O54943).
Test [3] addresses HA-Bmal1 (murine Bmal1, from pcDNA3HABmal1) (murine) (UniProt Q9WTL8).

No constants are given. Whether binding was seen depends on the method and setting. Binding seen in cells or lysates may run through a third protein. Some binding calls cover weakened binding; strength is not graded here. Where a sequence is shown, tags or fusion partners need not be part of it.

In the case of “HA-Bmal1 (murine Bmal1, from pcDNA3HABmal1) (from UniProt Q9WTL8 1-632)”, in test [1], the binding entry was “binds”.

B1: Xpress-Magel2 (murine Magel2, epitope-tagged, from pcDNA4HisMaxXpressMagel2) (protein, UniProt Q9QZ04 1-1284)
chain: T1 sequence
Consider B1, for which the binding result in test [2] and in test [3] was “binds” in each case.
